PubChem BioAssay AID686937 | Drosophila RNAi Screening Center – 2013

Screen: 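Genes in the fly needed for secretion of protein constitutively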 (primary screen)
Cells: Drosophila S2 cells expressing secreted horseradish peroxidase
Reagents: long dsRNA against Drosophila genes
Time to read-out: about 5.5 days (5 days dsRNA, then 12 h reporter induction)
Treatment: reporter expression induced after 5 days of dsRNA, read 12 h later; inducer not stated
Measured: 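After 5 days of dsRNA and 12 h of reporter induction, medium peroxidase read by chemiluminescence and scored as per-plate z-score; higher values mean more reporter released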
Reading the numbers: z-score: higher = more reporter secreted into medium
The screen tested about 23,000 reagents; below is an unselected part of those that have a named target and a result. 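Reduced-secretion tags in replicate 1 do not always agree with the z-scores; no criterion for assigning the tags was given.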 The numbers tell different reagents against one gene apart. A plus sign joins genes that one reagent is predicted to hit. Not all columns of the deposit are shown. Reagent sequences are not shown. Not given: the amount of reagent.

no.	predicted target	reagent	z-score, replicate 1
1	grim (GeneID 40014)	1	-2.35
2	CG15025 (GeneID 42328)	1	0.31
3	pkaap (GeneID 34957)	1	0
4	ringer (GeneID 39813)	1	0.06
5	Dcp-1 (GeneID 37729)	1	0.11
6	CG17129 (GeneID 38080)	1	0.15
7	CG12689 (GeneID 31676)	1	0.3
8	CG13587 (GeneID 37930)	1	0.08
9	numb (GeneID 34263)	1	0.41
10	CG14687 (GeneID 41297)	1	0.36
11	CG13850 (GeneID 42630)	1	-0.19
12	CG3117 (GeneID 33484)	1	0.26
13	Stip1 (GeneID 33202)	1	0.92
14	lncRNA:CR41601 (GeneID 5740627)	1	0.21
15	EndoGI (GeneID 34953)	1	0.23
16	Acox57D-p (GeneID 37445)	1	0.1
17	Cpr100A (GeneID 43657)	1	0.01
18	Mitf (GeneID 3885647)	1	0.31
19	Mitf (GeneID 3885647)	2	0.29
20	Send2 (GeneID 34836)	1	0.11
21	CG16824 (GeneID 5740834)	1	0.63
22	CG14120 (GeneID 39463)	1	0.13
23	Nep2 (GeneID 40588)	1	0.35
24	Nep2 (GeneID 40588)	2	0.23
25	onecut (GeneID 45816)	1	0.48
26	mRpL46 (GeneID 38230)	1	-0.34
27	CG42824 (GeneID 10178873)	1	0.08
28	dpa (GeneID 35679)	1	0.05
29	par-1 (GeneID 2768852)	1	-2.98
30	par-1 (GeneID 2768852)	2	0.23
31	par-1 (GeneID 2768852)	3	0.06
32	par-1 (GeneID 2768852)	4	0.55
33	par-1 (GeneID 2768852)	5	0.31
34	CG9988 (GeneID 43388)	1	0.32
35	zld (GeneID 32994)	1	-1.51
36	zld (GeneID 32994)	2	0.22
37	CG9396 (GeneID 41156)	1	0.27
38	CG13102 (GeneID 34228)	1	0.07
39	CG34454 (GeneID 5740130)	1	0.35
40	SerRS (GeneID 33518)	1	-0.34
41	CG3701 (retired record) (GeneID 37568)	1	0.19
42	CG3701 (retired record) (GeneID 37568)	2	0.46
43	Sys1 (GeneID 41023)	1	-0.01
44	Rtf1 (GeneID 37554)	1	-2.34
45	CG4752 (GeneID 37569)	1	0.35
46	CG18585 (GeneID 34041)	1	0.31
47	CG14720 (GeneID 41415)	1	0.26
48	qm (GeneID 38816)	1	0.13
49	Notum (GeneID 39751)	1	0.47
50	Herp (GeneID 34065)	1	0.26
51	Dph2 (GeneID 41802)	1	0.11
52	Dsor1 (GeneID 31872)	1	-0.7
53	sky (GeneID 35359)	1	0.15
54	sky (GeneID 35359)	2	0.15
55	sky (GeneID 35359)	3	0.2
56	dnk (GeneID 42273)	1	0.36
57	mst (GeneID 33119)	1	0.04
58	cry (GeneID 42305)	1	0.39
59	Gip (GeneID 31960)	1	-2.14
60	CG9541 (GeneID 34220)	1	0.22
61	Rala (GeneID 31332)	1	0.28
62	CG30403 (GeneID 246595)	1	0.66
63	Adgf-A (GeneID 39976)	1	0.26
64	CG14505 (GeneID 37098)	1	0.38
65	RyR (GeneID 49090)	1	0.13
66	LysD + LysB + LysC (retired record)	1	0.49
67	CG31200 (GeneID 326124)	1	0.2
68	CG11360 (GeneID 43810)	1	0.33
69	CG11360 (GeneID 43810)	2	0.17
70	CG6340 (GeneID 32482)	1	0.13
71	Set2 (GeneID 32301)	1	0.08
72	CG14220 (GeneID 32954)	1	-1.97
73	Spn55B (GeneID 49803)	1	0.34
74	Spn55B (GeneID 49803)	2	0.66
75	Hmx (GeneID 42110)	1	-0.88
76	Hmx (GeneID 42110)	2	0.66
77	Hmx (GeneID 42110)	3	-0.13
78	Hmx (GeneID 42110)	4	1.75
79	Dnaaf3 (GeneID 37125)	1	0.24
80	CG15221 (GeneID 32127)	1	0.35
81	Cyp4d2 (GeneID 31192)	1	0.44
82	CG4328 (GeneID 39405)	1	-2.2
83	eIF1A (GeneID 44260)	1	-2.56
84	CG6839 (GeneID 40067)	1	0.34
85	Ythdf (GeneID 42995)	1	0.19
86	Ythdf (GeneID 42995)	2	0.16
87	CG15263 (GeneID 34898)	1	0.19
88	ODA-Dnal1 (GeneID 35962)	1	-0.01
89	TrpA1 (GeneID 39015)	1	0.34
90	Dbp80 (GeneID 3354919)	1	-0.47
91	Gug (GeneID 46156)	1	-0.08
92	CG4676 (GeneID 36465)	1	0.24
93	Evi5 (GeneID 32088)	1	0.56
94	Pgcl (GeneID 30984)	1	0.41
95	CG11333 (GeneID 43714)	1	0.44
96	Tango14 (GeneID 33298)	1	-1.75
97	Alp2 (GeneID 37539)	1	0.25
98	CG3040 (GeneID 31642)	1	0.07
99	Hel89B (GeneID 41943)	1	0.33
100	Hel89B (GeneID 41943)	2	1.63
101	Ssu72 (GeneID 32973)	1	0.12
102	Lint-O (GeneID 31254)	1	0.11
103	CG11756 (GeneID 32074)	1	0.42
104	betaCOP (GeneID 32820)	1	-5.63

Part of the list above, set out differently:
{"predicted target": "ringer (GeneID 39813)", "reagent": 1, "z-score, replicate 1": 0.06}
{"predicted target": "Dcp-1 (GeneID 37729)", "reagent": 1, "z-score, replicate 1": 0.11}
{"predicted target": "CG17129 (GeneID 38080)", "reagent": 1, "z-score, replicate 1": 0.15}
{"predicted target": "CG12689 (GeneID 31676)", "reagent": 1, "z-score, replicate 1": 0.3}
{"predicted target": "CG13587 (GeneID 37930)", "reagent": 1, "z-score, replicate 1": 0.08}
{"predicted target": "numb (GeneID 34263)", "reagent": 1, "z-score, replicate 1": 0.41}
{"predicted target": "CG14687 (GeneID 41297)", "reagent": 1, "z-score, replicate 1": 0.36}
{"predicted target": "CG13850 (GeneID 42630)", "reagent": 1, "z-score, replicate 1": -0.19}
{"predicted target": "CG3117 (GeneID 33484)", "reagent": 1, "z-score, replicate 1": 0.26}
